Laboratory results published in PubChem BioAssay AID1347423 (Functional Genomics Laboratory (NCATS/FGL), 2020).
Hit rate of the full screen: of about 52,000 sequences, about 210 (0.4%) were called active.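 Rule for the calls: active = gene whose silencing raises cell survival under the drug, median off-target-corrected z-score across its silencing RNAs 2 or more; inactive = the rest.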 This is one part of the list.

Experiment: Resistance to Poly (ADP-Ribose) Polymerase inhibitor: Gene Identification via Genome-wide siRNA Screen
Details: mouse BRCA2 R2336H ES cells, olaparib, CellTiter-Glo viability; hits give high values
Procedure, shortened: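 Genome-wide siRNA screen (3 siRNAs/gene, 20 nM) in mouse ES cells carrying hypomorphic BRCA2 R2336H; olaparib 500 nM added 48 h post-transfection, CellTiter-Glo viability 72 h later. Normalized to plate-median negative control; MAD z-scores, gene median, seed-adjusted.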

Row | Sequence | z-score
1 | GGUAACUGGUGUCAUUUAATT against 4933409D10Rik | inactive: 0.948
2 | GGUCCCUUUAUCUUUCUUUTT against D17H6S56E-3 | inactive: 0.456
3 | GGGCAUCAUUAAAAGGAAATT against 0610009J22Rik | inactive: 0.341
4 | CCCGCUUGUUCUGAUGAUATT against 2310039H08Rik | inactive: 0.63
5 | GGACACAGACAAUGAAAUGTT against Fetub | inactive: 1.23
6 | CCUUCAUGUAAUGAAGGCCTT against Rps10 | inactive: -0.243
7 | GGAAAUCCGAAAUGAGCUGTT against Gm1395 | inactive: 0.942
8 | GCUCUGAGUGAGUCAAAAGTT against 0610016J10Rik | inactive: 0.847
9 | GGUGUUCCACCCAACUCAATT against 1810057E01Rik | inactive: 1.2
10 | GGACAUGGCUCUAAAAUUUTT against 1110007C24Rik | inactive: 1.33
11 | GUUAAAAAGUGGAAUGCAGTT against Rbx1 | inactive: 0.681
12 | GGAAACCGAAUUCCAAGGGTT against Ddx25 | inactive: -0.217
13 | GCAAGAAAACCUUAGCUCATT against Trpm2 | inactive: -0.762
14 | GGUAGUAGGAGUUUCCUACTT against 4933414I15Rik | inactive: 1.79
15 | GGGUCUGAUUUUUUAAGGATT against Arpp19 | inactive: -0.486
16 | CCAUUUAUUCCCUCAACAUTT against Shoc2 | inactive: 0.772
17 | GCACUUACAUUGACGAACUTT against Olfr985 | inactive: -1.8
18 | GGAAGUUACUGUGAGAUAATT against Mtbp | inactive: -2.9
19 | GGCUCGUCAAAUCAAGUAUTT against Hist1h2be | inactive: -1.15
20 | GGUUUUGCAUAAGAUCAUUTT against Nnp1 | inactive: -2.69
21 | GGUGGAGUUUAAACUUACATT against Atp4b | inactive: 1.33
22 | CCUACUUUAGUUCACUUUGTT against Tsnax | inactive: -0.0579

Row | Sequence | z-score
23 | CGUCCUGUCGGUAACAUUATT against Mllt2h | inactive: 1.77
24 | CGUGCUGUUUAAAAGCCGUTT against Mkrn3 | inactive: 1.38
25 | GGCUCUCAUCCAUCUCCUUTT against Olfr715 | inactive: -2.25
26 | CGCUAAGCUUAUUGAGUCUTT against BC003251 | inactive: 0.488
27 | GCAGGGAGACUCACAUUAATT against Anktm1 | inactive: -1.29
28 | GGCCAAGAUCAUGAUCACCTT against Cldn4 | inactive: 0.413
29 | CCUUUGGACUGUACCACCUTT against 1200003I07Rik | inactive: -1.02
30 | GAGACAAGGGUCGUCUAAUTT against Dusp13 | inactive: -1.22
31 | GGUCAUUCAAGAGAUACUATT against 1810055E12Rik | inactive: -1.02
32 | GGGAAGCAACAUGAUUAAATT against Myst2 | inactive: 1.25
33 | GGAACUUCUGGUAAGUUUGTT against 5930412E23Rik | inactive: -1.7
34 | GCGGCUUAUGUCUCAAAUUTT against Gcdh | inactive: -0.52
35 | GGAGCGAAGUGAUGAAUAATT against Rds | inactive: 0.434
36 | GGUAUACAAAUCAAAUGUCTT against Nufip1 | inactive: -0.724
37 | CCGUAUCAACCUCAUCUAUTT against Mobkl2c | inactive: 0.723
38 | GGGAGUUAUAUUAGUCUAUTT against Rab18 | inactive: -2.64
39 | CCAUCAACCCAUCAUGUGCTT against Pitpnc1 | inactive: 0.101
40 | GCCGGAUACCAACAUUCAATT against 5330431N24Rik | inactive: -0.901
41 | CCUUCCAUCCGAUUUGAAGTT against Ell | inactive: 0.0059
42 | CCUAUCAGUCUAUCAUGUATT against Kdr | inactive: 0.301
43 | GGUUCCUCUGUAAAAAGAUTT against Defb13 | inactive: -0.636
44 | GGGCCACAUGUGUUCACUATT against Scotin | inactive: -1.89

Row | Sequence | z-score
45 | GGUUGUAGACUUUAUUCAATT against Ppm1g | inactive: 0.178
46 | GGUCUAUGACAAGAAUUUUTT against Rdh7 | inactive: -0.0367
47 | GGAAGAGUUGGAGAAAAUUTT against 4930549C01Rik | inactive: 1.51
48 | GCUUGUUUUCCUUAAGGGATT against Crry | inactive: -0.169
49 | GGUAACCUGUACAAUUGACTT against Serpinb1c | inactive: -0.252
50 | GGAAAGCAUCAUUGAAAACTT against Dkk1 | inactive: 1.38
51 | GGAAUGCUAUUCUCGGACUTT against Lrg1 | inactive: -0.758
52 | GCUACAAUAAUGGUCAGUCTT against Zfp36l3 | inactive: 0.793
53 | GGACUUUAGCAAAAUCGGCTT against LOC433481 | inactive: 0.86
54 | UGUAUCUGCUUACAGUAGCTT against Olfr523 | inactive: 0.317
55 | GGAUCCUCAACAAAGAAGATT against H2-DMb1 | inactive: -0.43
56 | GGAUCAUUCCAUUUCUGCCTT against G431001E03Rik | inactive: -0.212
57 | CCAGUAUUUGAGAAUUCUGTT against LOC214403 | inactive: 0.1
58 | GGAUAUCGAUUUAAGAGACTT against Adam2 | inactive: 1
59 | GGACCUGUUUUGGAAAUAUTT against Igj | inactive: 0.803
60 | GGUAACUUCUCAUCUCAACTT against MapKapk3 | inactive: 0.924
61 | GGGAGGGAAUAGUCAAAAATT against Timm17b | inactive: 0.913
62 | GCACAACCGAUUUUAUCACTT against BC005624 | inactive: 1.9
63 | GCACUAUACCGAAAAGCGCTT against Ppid | inactive: 0.628
64 | CCAAUUUAUACUUAGUGCCTT against 2210404G23Rik | inactive: -0.0819
65 | GGAUCUCAUGUUGAUAUAATT against Rpp40 | inactive: -1.39
66 | CGAAUACAUUAAGGAGAACTT against Relb | inactive: 1.62

Five entries picked at random from the list so far:
Row | Sequence | z-score
63 | GCACUAUACCGAAAAGCGCTT against Ppid | inactive: 0.628
53 | GGACUUUAGCAAAAUCGGCTT against LOC433481 | inactive: 0.86
52 | GCUACAAUAAUGGUCAGUCTT against Zfp36l3 | inactive: 0.793
65 | GGAUCUCAUGUUGAUAUAATT against Rpp40 | inactive: -1.39
62 | GCACAACCGAUUUUAUCACTT against BC005624 | inactive: 1.9
